Laboratory results taken from paper PMC11667809.
These are yes or no findings as the source states them, for the method shown. Binding seen in cells or lysates may run through a third protein. These calls come from enrichment with a bait or labelling near it, and not all partners need be listed.

Chains of the proteins cited; added tags and fusions are not shown.
UniProt P25440: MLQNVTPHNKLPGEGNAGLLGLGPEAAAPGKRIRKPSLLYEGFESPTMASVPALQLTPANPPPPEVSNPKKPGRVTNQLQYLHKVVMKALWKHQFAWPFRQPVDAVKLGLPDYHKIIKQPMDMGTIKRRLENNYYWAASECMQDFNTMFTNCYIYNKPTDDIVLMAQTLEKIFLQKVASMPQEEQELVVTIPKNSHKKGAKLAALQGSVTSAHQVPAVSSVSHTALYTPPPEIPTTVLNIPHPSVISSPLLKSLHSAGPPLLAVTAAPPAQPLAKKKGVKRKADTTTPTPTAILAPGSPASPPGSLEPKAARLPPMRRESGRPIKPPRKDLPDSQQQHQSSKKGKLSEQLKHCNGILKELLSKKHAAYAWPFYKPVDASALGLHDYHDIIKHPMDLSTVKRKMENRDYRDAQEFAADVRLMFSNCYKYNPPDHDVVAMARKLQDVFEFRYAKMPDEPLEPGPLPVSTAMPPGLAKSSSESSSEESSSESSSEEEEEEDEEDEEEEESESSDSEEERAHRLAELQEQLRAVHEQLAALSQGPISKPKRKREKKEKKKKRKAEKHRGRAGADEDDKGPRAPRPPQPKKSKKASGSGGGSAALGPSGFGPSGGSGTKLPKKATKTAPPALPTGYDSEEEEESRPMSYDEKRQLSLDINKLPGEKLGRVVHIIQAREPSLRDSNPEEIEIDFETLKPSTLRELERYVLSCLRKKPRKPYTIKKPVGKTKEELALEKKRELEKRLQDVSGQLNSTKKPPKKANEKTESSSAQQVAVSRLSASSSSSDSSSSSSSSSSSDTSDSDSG
UniProt P98177: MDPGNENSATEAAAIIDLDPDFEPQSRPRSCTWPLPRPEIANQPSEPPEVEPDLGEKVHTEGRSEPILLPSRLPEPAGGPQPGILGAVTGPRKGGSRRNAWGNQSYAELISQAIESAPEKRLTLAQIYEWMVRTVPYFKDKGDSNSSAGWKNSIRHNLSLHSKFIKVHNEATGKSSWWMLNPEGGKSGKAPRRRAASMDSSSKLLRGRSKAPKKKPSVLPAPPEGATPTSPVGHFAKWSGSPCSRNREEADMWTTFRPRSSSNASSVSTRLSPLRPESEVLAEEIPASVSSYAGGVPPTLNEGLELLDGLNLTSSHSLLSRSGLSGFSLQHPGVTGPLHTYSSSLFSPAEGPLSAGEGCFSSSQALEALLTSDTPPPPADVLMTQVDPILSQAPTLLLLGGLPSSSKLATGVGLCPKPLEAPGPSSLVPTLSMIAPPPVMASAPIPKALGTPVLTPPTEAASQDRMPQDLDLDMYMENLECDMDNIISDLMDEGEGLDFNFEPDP

Biological target: Bromodomain-containing protein 2 (human) (UniProt P25440)
Experiment: affinity purification with mass spectrometry; COIP-MS of BRD2; hits overlapped with predicted transcription factors of FLIP; cells and conditions not told

binding: binds
Substance: FOXO4 wild-type (from UniProt P98177 1-505)
